Assay results as given in article PMC12071352.
Results are given in words; binding and its absence hold for the method and conditions named. Binding seen in cells or lysates may run through a third protein. Some results given as binding are weak or reduced against the parent protein; the word gives no strength. Each block holds one binder with its values, some of them ahead of it.

Chains of the proteins cited; added tags and fusions are not shown.
UniProt P63158: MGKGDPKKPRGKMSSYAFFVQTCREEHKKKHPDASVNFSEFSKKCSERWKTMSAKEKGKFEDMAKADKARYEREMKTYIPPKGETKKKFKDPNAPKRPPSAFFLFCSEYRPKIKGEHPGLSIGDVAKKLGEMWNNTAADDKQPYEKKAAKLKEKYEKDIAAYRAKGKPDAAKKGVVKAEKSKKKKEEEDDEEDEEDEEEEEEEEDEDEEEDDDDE

Biological target: High-mobility group box 1 (mouse (endogenous in 3T3-L1)) (UniProt P63158)
Test: co-IP; lysates (1000 µg) of undifferentiated and 5-day differentiated 3T3-L1 adipocytes; precipitated with anti-HMGB1 antibody overnight at 4 °C, Protein A/G-Sepharose beads, three PBS washes; blotted with anti-pCAV1, anti-CAV1 and anti-HMGB1

- binding: binds
B1: Caveolin-1 (protein, UniProt P49817 1-178)
chain: MSGGKYVDSEGHLYTVPIREQGNIYKPNNKAMADEVTEKQVYDAHTKEIDLVNRDPKHLNDDVVKIDFEDVIAEPEGTHSFDGIWKASFTTFTVTKYWFYRLLSTIFGIPMALIWGIYFAILSFLHIWAVVPCIKSFLIEIQCISRVYSIYVHTFCDPLFEAIGKIFSNIRISTQKEI

- binding: binds
B2: Phosphorylated caveolin-1 (protein, UniProt P49817 1-178)
chain: B1 chain
modifications: phosphorylated (site not given; Src-dependent)
